Laboratory results published in PubChem BioAssay AID504834 (National Center for Advancing Translational Sciences (NCATS), 2011).
Screen size: about 320,000 compounds; about 22,000 (6.9%) were called active. Inconclusive means that the source gave no clear call. Such entries were picked first, then a sample of the others. Calls follow the shape of the dose curve; as a rule, active = well fitted inhibition curve with a large enough effect; inconclusive = small, poorly fitted or top-dose-only effect, or another doubt; inactive = no such curve, though single readings can be large or run the other way. Potencies of inconclusive entries are doubtful fits and often do not repeat.

Test: Primary qHTS for delayed death inhibitors of the malarial parasite plastid, 96 hour incubation
Conditions: P. falciparum luciferase reporter growth; series mostly up to 28.7 µM; activity change, negative = inhibition: at the top concentration
Procedure, shortened: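 Erythrocytes infected with luciferase-expressing P. falciparum were dispensed at 2% hematocrit and 0.05% parasitemia (final), then incubated with compounds 96 hours at 37 C in 5% CO2. Luminescence after detection reagent addition reported growth.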
% is scaled to controls: 0 for no effect and ±100 for the full control effect; potency is read from the fitted curve at half-maximal effect.

SMILES | Potency | activity change, negative = inhibition
COc1ccc(N(CC(=O)Nc2ccc(C)cc2)S(=O)(=O)c2c(C)noc2C)cc1 | inconclusive: 10.4 µM [inhibitor, single point] | –
COC(=O)[C@H](CC(C)C)NS(=O)(=O)N(Cc1ccccc1)[C@@H](CC(C)C)C(=O)OC | inconclusive: 16.5 µM [inhibitor, single point] | –
CC(=C\c1ccccc1)/C=C1/SC(=S)N(CCC(=O)O)C1=O | inconclusive: 11.7 µM [inhibitor, single point] | –
O=C1c2ccccc2C(=O)C1c1ccccc1F | – | inactive: -0.389%
C(=N\N(c1ccccc1)c1ccccc1)/c1ccc2c(c1)OCO2 | inconclusive: 18.5 µM [inhibitor, single point] | –
S=C(Nc1ccc(Cl)cc1Cl)Nn1cnnc1 | – | inactive: -8.49%
S=c1nc2ccccc2c2nc(-c3ccccc3Br)[nH]n12 | active: 2.33 µM | –
CC(C)c1ccc(NC(=O)Cn2nnc(C(=O)NCc3ccc4c(c3)OCO4)c2N)cc1 | active: 9.28 µM | –
N=C1/C(=C\c2ccc(SCc3ccccc3)o2)C(=O)N=C2SC=NN12 | inconclusive: 14.7 µM [inhibitor, single point] | –
c1cc2c(cc1C1=Nn3c(nnc3C3CCCCC3)SC1)OCO2 | inconclusive: 0.0033 µM [inhibitor, full curve, poor fit] | –
O=C(Cc1cccs1)Nc1nncs1 | inconclusive: 2.62 µM [inhibitor, single point] | –
CC(=O)NNc1cc(N2CCOCC2)nc(N2CCOCC2)n1 | inconclusive: 9.28 µM [inhibitor, partial curve, poor fit] | –
CCOc1ccc(NC(=S)NC(=O)C2CCCC2)cc1 | inconclusive: 20.8 µM [inhibitor, partial curve, poor fit] | –
O=C(CSC1c2ccccc2-c2ccccc21)N/N=C/c1ccccc1 | inconclusive: 14.7 µM [inhibitor, single point] | –
COC(=O)c1cc(CNC(=O)CCCSc2ccccc2)ccc1OC | – | inactive: 71.5%
O=C(CN1CCc2cc3c(cc2C1)OCCCO3)Nc1c(F)cccc1F | inconclusive: 18.5 µM [inhibitor, single point] | –
CCOC(=O)c1c(-c2ccc(C)cc2)csc1NC(=O)CCN1CCOCC1 | inconclusive: 13.1 µM [inhibitor, partial curve] | –
CC1(C)CC(=O)C2=C(C1)N1C(=C(C#N)C2c2ccc(Cl)cc2)N=C(N)c2ccccc21 (centres undefined) | active: 13.1 µM | –
Cc1cc(-c2csc(N)n2)c(C)n1CCC(C)C | inconclusive: 18.5 µM [inhibitor, single point] | –
CCOc1ccc(NC(=O)Cc2ccccc2)c([N+](=O)[O-])c1 | inconclusive: 18.5 µM [inhibitor, single point] | –
CNCc1ccccc1OCC(=O)Nc1ccccc1 | – | inactive: 84.9%
COc1ccc(C)cc1Nc1nc(-c2ccccc2O)nc2ccccc12 | inconclusive: 11.7 µM [inhibitor, partial curve, poor fit] | –
CC(=O)N1CCC2(CC1)CC(=O)c1cc(OCC(=O)NCc3ccco3)ccc1O2 | – | inactive: 50.2%

Among those listed so far, 9 contain nitrogen in an aromatic ring:
SMILES | Potency | activity change, negative = inhibition
COc1ccc(N(CC(=O)Nc2ccc(C)cc2)S(=O)(=O)c2c(C)noc2C)cc1 | inconclusive: 10.4 µM [inhibitor, single point] | –
S=C(Nc1ccc(Cl)cc1Cl)Nn1cnnc1 | – | inactive: -8.49%
S=c1nc2ccccc2c2nc(-c3ccccc3Br)[nH]n12 | active: 2.33 µM | –
CC(C)c1ccc(NC(=O)Cn2nnc(C(=O)NCc3ccc4c(c3)OCO4)c2N)cc1 | active: 9.28 µM | –
c1cc2c(cc1C1=Nn3c(nnc3C3CCCCC3)SC1)OCO2 | inconclusive: 0.0033 µM [inhibitor, full curve, poor fit] | –
O=C(Cc1cccs1)Nc1nncs1 | inconclusive: 2.62 µM [inhibitor, single point] | –
CC(=O)NNc1cc(N2CCOCC2)nc(N2CCOCC2)n1 | inconclusive: 9.28 µM [inhibitor, partial curve, poor fit] | –
Cc1cc(-c2csc(N)n2)c(C)n1CCC(C)C | inconclusive: 18.5 µM [inhibitor, single point] | –
COc1ccc(C)cc1Nc1nc(-c2ccccc2O)nc2ccccc12 | inconclusive: 11.7 µM [inhibitor, partial curve, poor fit] | –

Carrying on.

SMILES | Potency | activity change, negative = inhibition
O=C(CCC1CCCCC1)NCCS(=O)(=O)N1CCN(c2ccc(F)cc2)CC1 | inconclusive: 16.5 µM [inhibitor, single point] | –
Cc1nc2c(-c3ccccc3)c(C)nn2c(SCC(N)=O)c1Cc1ccccc1 | inconclusive: 10.4 µM [inhibitor, single point] | –
CO[C@@]12[C@H](COC(N)=O)C3=C(C(=O)C(C)=C(N)C3=O)N1C[C@@H]1N[C@@H]12 | active: 5.22 µM | –
O=S(=O)(c1ccc(F)cc1)N1CCCCC1c1cccnc1 (centres undefined) | inconclusive: 18.5 µM [inhibitor, single point] | –
NC(=O)c1ccc(NC(=O)CS(=O)(=O)c2cn(CC(=O)N3CCCCC3)c3ccccc23)cc1 | inconclusive: 10.4 µM [inhibitor, partial curve, poor fit] | –
CN(C)S(=O)(=O)c1ccc(C(=O)OCC(=O)NCc2ccco2)cc1 | – | inactive: 7.78%
CN(C(=S)NC(=O)c1ccc(F)cc1)C1CCCCC1 | inconclusive: 1.47 µM [inhibitor, full curve, poor fit] | –
COC(=O)c1ccc2ccn(CC(=O)NC3CCCCC3)c2c1 | inconclusive: 0.0657 µM [inhibitor, full curve, poor fit] | –
Cc1ccccc1Nc1nc(N2CCOCC2)nc(N2CCOCC2)n1 | – | inactive: 5.45%
COc1ccccc1C(CNC(=O)C1CCN(C(=O)Nc2ccccc2)CC1)N1CCCC1 (centres undefined) | inconclusive: 13.1 µM [inhibitor, single point] | –
COc1ccc([C@]23Cc4cc(C#N)ccc4C(O2)c2c(cc(-c4ccccc4)oc2=O)O3)cc1 | – | inactive: -5.6% [at 5.75 µM]
COc1cc(C2c3c([nH]c(=O)[nH]c3=O)Nc3ccc4ccccc4c32)cc(OC)c1OC (centres undefined) | inconclusive: 16.5 µM [inhibitor, single point] | –
CCOc1ccc(NC(=O)COC(=O)c2ccc3c(c2)OCCO3)cc1 | inconclusive: 18.5 µM [inhibitor, single point] | –
COc1ccccc1Nc1nnc(SCC(=O)Nc2nc(-c3ccc(F)cc3)cs2)s1 | active: 13.1 µM | –
Cn1cnnc1SC(C(=O)Nc1cc(Cl)cc(Cl)c1)c1ccccc1 (centres undefined) | – | inactive: -3.98%
CCOc1ccc(S(=O)(=O)Nc2cccc(C(=O)NCC(c3ccc(OC)cc3)N3CCOCC3)c2)cc1 (centres undefined) | inconclusive: 11.7 µM [inhibitor, single point] | –
CC(C)CCn1c(=O)c2ccccc2n2c(CCl)nnc12 | inconclusive: 11.7 µM [inhibitor, single point] | –
CCCn1cnnc1CNC(=O)C1CCC(=O)N(CCc2ccc(OC)cc2)C1 (centres undefined) | – | inactive: 17.8%
CCOCCCn1c(=N)c(C(=O)NCc2ccc3c(c2)OCO3)cc2c(=O)n3cccc(C)c3nc21 | – | inactive: 11.7%
CCOC(=O)C1(C)NC(c2cc(OC)c(OC)c(OC)c2)C2C(=O)N(CC)C(=O)C21 (centres undefined) | – | inactive: 18.9%
Oc1ccc(OCc2ccccc2)cc1 | inconclusive: 5.1 µM [inhibitor, single point] | –
Cn1nc(C(C)(C)C)cc1NC(=O)Nc1cc(Cl)cc(Cl)c1 | inconclusive: 10.4 µM [inhibitor, single point] | –
CCC(=O)Nc1cccc(C(=O)OCc2cccc([N+](=O)[O-])c2)c1 | – | inactive: 28.3%

Reprinted at random: two records from the list.
SMILES | Potency | activity change, negative = inhibition
Oc1ccc(OCc2ccccc2)cc1 | inconclusive: 5.1 µM [inhibitor, single point] | –
CN(C)S(=O)(=O)c1ccc(C(=O)OCC(=O)NCc2ccco2)cc1 | – | inactive: 7.78%

(list continues)

SMILES | Potency | activity change, negative = inhibition
COC(=O)CCC(=O)OC1(C)C(=O)C2=CN(C3CCCC3)C(c3ccc(OC)cc3)=CC2=C(Br)C1=O (centres undefined) | inconclusive: 2.33 µM [inhibitor, full curve] | –
O=C(NC1CCCc2ccccc21)c1cc(S(=O)(=O)N2CCOCC2)ccc1F (centres undefined) | inconclusive: 6.57 µM [inhibitor, partial curve, poor fit] | –
C/C(=N\Nc1cc(C)nc(-c2ccccc2)n1)c1cccc([N+](=O)[O-])c1 | active: 0.415 µM | –
NC(=O)c1ccc(N=Nc2c(O)[nH]c(=O)[nH]c2=O)cc1 | – | inactive: 77.1%
CCOC(=O)C1CCCN(C(=O)c2ccc(S(=O)(=O)Nc3ccccc3OC)cc2)C1 (centres undefined) | inconclusive: 13.1 µM [inhibitor, partial curve, poor fit] | –
Cc1noc(C)c1S(=O)(=O)Nc1ccccc1N1CCOCC1 | inconclusive: 11.7 µM [inhibitor, single point] | –
CCCC(=O)Nc1ccc(C(=O)NCCc2ccc(F)cc2)cc1 | inconclusive: 18.5 µM [inhibitor, single point] | –
CCN(CC)S(=O)(=O)c1nnc(NC(=O)c2ccco2)s1 | inconclusive: 0.738 µM [inhibitor, full curve, poor fit] | –
Cc1nc2c([N+](=O)[O-])c(C)c(C)cc2[nH]1 | – | inactive: 9.57%
O=C(NCCCN1CCOCC1)c1ccc(/C=C2\Oc3ccccc3N(Cc3ccccc3F)C2=O)cc1 | active: 8.28 µM | –
C=C(C)CN1CCN(c2ccc(N3C(=O)CCCC3=O)cc2[N+](=O)[O-])CC1 | inconclusive: 18.5 µM [inhibitor, single point] | –
COc1cccc(C(=O)Nc2ccc3nc(N4CCOCC4)cc(C)c3c2)c1 | active: 0.465 µM | –
CCCN(C(=O)c1ccc2c(SCC(=O)O)c3c(nc2c1)CCC3)c1cccc(C)c1 | – | inactive: -21.5%
Cc1cccc(NS(=O)(=O)c2c(C)[nH]c(C)c2C(=O)N2CCCC2)c1 | inconclusive: 18.5 µM [inhibitor, single point] | –
COc1ccc(S(=O)(=O)Oc2cc(C(=S)N3CCOCC3)ccc2OC)cc1 | inconclusive: 3.29 µM [inhibitor, partial curve] | –
O=C(COc1ccc2c3c(c(=O)oc2c1)CCCC3)N1CCN(c2ccc(F)cc2)CC1 | – | inactive: -22%
CCOc1cc(/C=N\NC(=O)c2c(C)nc3ccccn23)ccc1O | – | inactive: 247%
CC(C)(C)c1ccc(-c2nc3c(C#N)c(-c4ccc5c(c4)OCO5)ccn3n2)cc1 | inconclusive: 10.4 µM [inhibitor, partial curve, poor fit] | –
COc1ccc(NC(C)=[N+](C)CCNS(=O)(=O)c2ccc(Cl)cc2)cc1Cl | inconclusive: 3.29 µM [inhibitor, full curve, poor fit] | –
CCCS(=O)(=O)N1CCN=C1SCc1cccnc1 | inconclusive: 0.0738 µM [inhibitor, full curve, poor fit] | –
O=C(CCl)NN=C(c1ccccc1)c1ccccc1 | inconclusive: 18.5 µM [inhibitor, single point] | –
O=C(Cn1c(=O)c2c3c(sc2n(Cc2ccccc2)c1=O)CCCC3)NCCO | inconclusive: 11.7 µM [inhibitor, partial curve, poor fit] | –
Cc1ccc(C(=O)NNC2=Nc3cc([N+](=O)[O-])ccc3OC2)cc1 | inconclusive: 11.7 µM [inhibitor, single point] | –
